According to patent publication US8778984B2, “Aldosterone synthase inhibitor” (Eli Lilly and Company, priority 2011, dated 2014):

Test system: estradiol production from H295R cells
Experiment: cells
Assay type: cell-based
Conditions: Homo sapiens, NCI-H295R, 48 h, read-out: Estradiol IC50 (μM)
Experimental: The human adrenocarcinoma cell line H295R is used to monitor the production of testosterone and estradiol in vitro. […] Various concentrations of test compounds in 1:3 dilution increments are added to the cell culture medium. After incubation for 48 hours, 100 μl culture medium is collected and d5-estradiol and d3-testosterone are added as ISs for estradiol and testosterone respectively.
An equal volume of sodium carbonate/sodium bicarbonate buffer (0.5 mol/L, pH 9.4) is added to the samples followed by freshly prepared dansyl chloride solution (50 μl, 20 mg/mL). Samples are mixed and incubated for 60 min at 60° C. The samples are then extracted 3× with EtOAc ([…]) using the FX, combining the organic layers in a new deep-well 96-well plate. The solvent is then dried in a GeneVac HT-4 or under nitrogen. The FX is used to reconstitute the samples in 50% MeOH/water ([…]) and the plates are heat-sealed.
A 40 μl aliquot of the sample is injected and a gradient from 20-100% MeOH in 0.95 min is initiated. An ABI QTRAP 4000 tandem mass spectrometer is used for MS/MS analysis in the positive ion mode. […] These peaks are separately integrated to give the peak areas. The area ratios of testosterone/IS and estradiol/IS are used to determine testosterone and estradiol concentrations by comparison to their respective standard curves. […]

IC50: < 0.0015 µM
Structure (SMILES): N#Cc1ccc(C2CCCc3cncn32)cc1 (stereo not shown) [Fadrozole, fadrozole, reference compound]
